The values below come from patent US20110319274A1 (Carlsberg A/S, priority 2004, published 2011).

Data set [1] can be described thus: general procedure: Fmoc solid-phase peptide synthesis; HMBA-Gly-PEGA; TBTU/NEM. The note with it: whole synthesis; for crude yield: scale of the general procedure 0.056 mmol.
The nature of data set [2]: general procedure: Fmoc solid-phase peptide synthesis; PEGA resin with Fmoc-Rink amide linker; TBTU/NEM. The following applies: whole synthesis, scale 0.056 mmol.

In data set [1] (run 1), “Lys-Dap(N3)-His-(D)Phe-Arg-Trp-Pra-Met cyclic” returned a crude yield of 82.5% and a crude mass of 8.1 mg. In data set [1] (run 2), the crude yield stood at 79% and the crude mass was found to be 7.8 mg.
In data set [2], Ac-His-(D)phe-Arg-Trp-NH2 gave a crude mass of 36.93 mg and a crude yield of 96%.
